Assay [1] concerns the target HSP90AA1 (UniProt P07900). The experiment in a line: melting temperature shift (DMSO Tm minus MBE1-treated Tm) in cellular thermal proteome profiling; higher = less thermal stabilization by MBE1 (negative = stabilized by MBE1). The settings on record: A375.
For assay [2], the target named is UniProt P13637. The description is as above. The following applies: A375.

This is one part of the list. This is a noisy data set.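 Tm was set to 64 °C where no melting was found, and many curves are irregular.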

Regarding `CCc1cnccc1C(=O)Nc1cc2c(cc1F)NC(=O)CC2`, the melting temperature shift in assay [1] (MBE1 concentration: 100 nM) is -0.55 °C; in assay [1] (MBE1 concentration: 1 uM), -0.214 °C; in assay [2] (MBE1 concentration: 100 nM), -1.23 °C; in assay [2] (MBE1 concentration: 1 uM), 0.0183 °C.

These data come from the supplement of paper PMC12595434, “Development of retinoid nuclear receptor pathway antagonists through targeting aldehyde dehydrogenase 1A3” (iScience, 2025).
